Reference: patent publication US20220332844A1 (ORIONIS BIOSCIENCES, published 2022)
Positions count from the first letter of the chain named. These are yes or no findings as the source states them, for the method shown. Binding can be weak; no strength is given. Each block holds one binder with its values, some of them ahead of it.

Target: recombinant FAP protein (BioLegend), biotinylated (Homo sapiens (Human))
Assay: BLI, biotinylated FAP on streptavidin sensors (FIG. 24)

- binding: binds
B1: P-2219: 2PE14_OptA (Q1D_Q5V_N32W_A74S_K83R_Q108L) (VHH)
VHH: DVQLVESGGGLVQPGGSLRLSCAASGSTFSIWAVAWYRQAPGKRRELVAGISGGGVTNYPDSVKGRFTISRDNSKNTVYLQMSSLRPEDTAVYYCNLWPPRASPGGRVYWGQGTLVTVSS

- binding: binds
B2: P-2220: 2PE14_OptB (Q1D_Q5V_N32W_A74S_S82N_K83R_Q108L) (VHH)
VHH: B1 VHH with S83N

- binding: binds
B3: P-2222: 3PE42_OptB (Q1D_Q5V_M31D_N32W_A74S_K83R_Q108L) (VHH)
VHH: B1 VHH with F29S, I31D, V34M, V56A, R107G
